# Test results from publication doi:10.1101/2023.04.26.538370.
# Sequences of proteins named here, by UniProt entry; tags and fusion partners are left off.
# UniProt P20357: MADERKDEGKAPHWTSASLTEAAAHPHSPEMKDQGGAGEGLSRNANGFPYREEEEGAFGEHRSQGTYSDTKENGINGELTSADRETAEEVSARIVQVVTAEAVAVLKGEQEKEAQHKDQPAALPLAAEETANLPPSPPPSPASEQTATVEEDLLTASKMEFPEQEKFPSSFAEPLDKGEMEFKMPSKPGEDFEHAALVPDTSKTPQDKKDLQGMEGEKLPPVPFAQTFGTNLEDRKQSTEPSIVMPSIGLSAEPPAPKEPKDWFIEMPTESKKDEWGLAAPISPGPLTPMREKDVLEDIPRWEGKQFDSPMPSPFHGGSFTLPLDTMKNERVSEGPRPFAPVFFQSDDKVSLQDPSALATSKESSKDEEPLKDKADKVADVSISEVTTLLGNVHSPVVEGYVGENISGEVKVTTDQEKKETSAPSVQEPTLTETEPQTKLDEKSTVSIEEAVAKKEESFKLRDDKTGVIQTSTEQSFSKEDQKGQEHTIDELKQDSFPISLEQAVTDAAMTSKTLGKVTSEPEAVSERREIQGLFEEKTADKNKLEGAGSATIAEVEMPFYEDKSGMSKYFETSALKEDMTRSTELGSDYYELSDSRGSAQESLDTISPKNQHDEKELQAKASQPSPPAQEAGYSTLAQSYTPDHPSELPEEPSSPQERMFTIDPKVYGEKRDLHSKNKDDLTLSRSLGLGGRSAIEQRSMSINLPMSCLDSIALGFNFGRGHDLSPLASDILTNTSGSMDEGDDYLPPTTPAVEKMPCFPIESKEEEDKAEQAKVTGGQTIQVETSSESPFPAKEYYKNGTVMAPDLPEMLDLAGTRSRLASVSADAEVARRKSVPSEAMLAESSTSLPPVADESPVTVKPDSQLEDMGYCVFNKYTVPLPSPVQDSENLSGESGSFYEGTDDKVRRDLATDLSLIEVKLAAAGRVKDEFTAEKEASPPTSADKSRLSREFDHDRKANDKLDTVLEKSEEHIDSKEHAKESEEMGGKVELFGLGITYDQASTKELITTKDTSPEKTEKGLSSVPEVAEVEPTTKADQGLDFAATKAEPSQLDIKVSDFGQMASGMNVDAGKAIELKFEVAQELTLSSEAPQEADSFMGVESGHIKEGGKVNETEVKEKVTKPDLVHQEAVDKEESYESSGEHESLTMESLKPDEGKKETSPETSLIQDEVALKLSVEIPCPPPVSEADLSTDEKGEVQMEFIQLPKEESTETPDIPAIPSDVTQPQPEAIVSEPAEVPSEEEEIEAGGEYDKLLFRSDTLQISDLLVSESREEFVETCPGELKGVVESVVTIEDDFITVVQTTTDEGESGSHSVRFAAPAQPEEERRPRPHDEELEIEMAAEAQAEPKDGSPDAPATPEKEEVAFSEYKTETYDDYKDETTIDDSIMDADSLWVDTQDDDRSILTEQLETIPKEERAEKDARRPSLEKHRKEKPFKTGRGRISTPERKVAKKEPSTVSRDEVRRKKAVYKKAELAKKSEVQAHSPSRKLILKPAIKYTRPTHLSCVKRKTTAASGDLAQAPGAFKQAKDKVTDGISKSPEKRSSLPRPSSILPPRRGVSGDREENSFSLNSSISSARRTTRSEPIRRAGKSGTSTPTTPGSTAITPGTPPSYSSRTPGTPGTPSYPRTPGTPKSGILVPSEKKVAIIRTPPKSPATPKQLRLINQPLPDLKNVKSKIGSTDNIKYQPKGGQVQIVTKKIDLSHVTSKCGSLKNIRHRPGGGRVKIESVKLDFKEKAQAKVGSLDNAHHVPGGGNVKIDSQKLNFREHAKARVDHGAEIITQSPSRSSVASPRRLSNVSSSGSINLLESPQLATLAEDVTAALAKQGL
# UniProt Q9JHU4: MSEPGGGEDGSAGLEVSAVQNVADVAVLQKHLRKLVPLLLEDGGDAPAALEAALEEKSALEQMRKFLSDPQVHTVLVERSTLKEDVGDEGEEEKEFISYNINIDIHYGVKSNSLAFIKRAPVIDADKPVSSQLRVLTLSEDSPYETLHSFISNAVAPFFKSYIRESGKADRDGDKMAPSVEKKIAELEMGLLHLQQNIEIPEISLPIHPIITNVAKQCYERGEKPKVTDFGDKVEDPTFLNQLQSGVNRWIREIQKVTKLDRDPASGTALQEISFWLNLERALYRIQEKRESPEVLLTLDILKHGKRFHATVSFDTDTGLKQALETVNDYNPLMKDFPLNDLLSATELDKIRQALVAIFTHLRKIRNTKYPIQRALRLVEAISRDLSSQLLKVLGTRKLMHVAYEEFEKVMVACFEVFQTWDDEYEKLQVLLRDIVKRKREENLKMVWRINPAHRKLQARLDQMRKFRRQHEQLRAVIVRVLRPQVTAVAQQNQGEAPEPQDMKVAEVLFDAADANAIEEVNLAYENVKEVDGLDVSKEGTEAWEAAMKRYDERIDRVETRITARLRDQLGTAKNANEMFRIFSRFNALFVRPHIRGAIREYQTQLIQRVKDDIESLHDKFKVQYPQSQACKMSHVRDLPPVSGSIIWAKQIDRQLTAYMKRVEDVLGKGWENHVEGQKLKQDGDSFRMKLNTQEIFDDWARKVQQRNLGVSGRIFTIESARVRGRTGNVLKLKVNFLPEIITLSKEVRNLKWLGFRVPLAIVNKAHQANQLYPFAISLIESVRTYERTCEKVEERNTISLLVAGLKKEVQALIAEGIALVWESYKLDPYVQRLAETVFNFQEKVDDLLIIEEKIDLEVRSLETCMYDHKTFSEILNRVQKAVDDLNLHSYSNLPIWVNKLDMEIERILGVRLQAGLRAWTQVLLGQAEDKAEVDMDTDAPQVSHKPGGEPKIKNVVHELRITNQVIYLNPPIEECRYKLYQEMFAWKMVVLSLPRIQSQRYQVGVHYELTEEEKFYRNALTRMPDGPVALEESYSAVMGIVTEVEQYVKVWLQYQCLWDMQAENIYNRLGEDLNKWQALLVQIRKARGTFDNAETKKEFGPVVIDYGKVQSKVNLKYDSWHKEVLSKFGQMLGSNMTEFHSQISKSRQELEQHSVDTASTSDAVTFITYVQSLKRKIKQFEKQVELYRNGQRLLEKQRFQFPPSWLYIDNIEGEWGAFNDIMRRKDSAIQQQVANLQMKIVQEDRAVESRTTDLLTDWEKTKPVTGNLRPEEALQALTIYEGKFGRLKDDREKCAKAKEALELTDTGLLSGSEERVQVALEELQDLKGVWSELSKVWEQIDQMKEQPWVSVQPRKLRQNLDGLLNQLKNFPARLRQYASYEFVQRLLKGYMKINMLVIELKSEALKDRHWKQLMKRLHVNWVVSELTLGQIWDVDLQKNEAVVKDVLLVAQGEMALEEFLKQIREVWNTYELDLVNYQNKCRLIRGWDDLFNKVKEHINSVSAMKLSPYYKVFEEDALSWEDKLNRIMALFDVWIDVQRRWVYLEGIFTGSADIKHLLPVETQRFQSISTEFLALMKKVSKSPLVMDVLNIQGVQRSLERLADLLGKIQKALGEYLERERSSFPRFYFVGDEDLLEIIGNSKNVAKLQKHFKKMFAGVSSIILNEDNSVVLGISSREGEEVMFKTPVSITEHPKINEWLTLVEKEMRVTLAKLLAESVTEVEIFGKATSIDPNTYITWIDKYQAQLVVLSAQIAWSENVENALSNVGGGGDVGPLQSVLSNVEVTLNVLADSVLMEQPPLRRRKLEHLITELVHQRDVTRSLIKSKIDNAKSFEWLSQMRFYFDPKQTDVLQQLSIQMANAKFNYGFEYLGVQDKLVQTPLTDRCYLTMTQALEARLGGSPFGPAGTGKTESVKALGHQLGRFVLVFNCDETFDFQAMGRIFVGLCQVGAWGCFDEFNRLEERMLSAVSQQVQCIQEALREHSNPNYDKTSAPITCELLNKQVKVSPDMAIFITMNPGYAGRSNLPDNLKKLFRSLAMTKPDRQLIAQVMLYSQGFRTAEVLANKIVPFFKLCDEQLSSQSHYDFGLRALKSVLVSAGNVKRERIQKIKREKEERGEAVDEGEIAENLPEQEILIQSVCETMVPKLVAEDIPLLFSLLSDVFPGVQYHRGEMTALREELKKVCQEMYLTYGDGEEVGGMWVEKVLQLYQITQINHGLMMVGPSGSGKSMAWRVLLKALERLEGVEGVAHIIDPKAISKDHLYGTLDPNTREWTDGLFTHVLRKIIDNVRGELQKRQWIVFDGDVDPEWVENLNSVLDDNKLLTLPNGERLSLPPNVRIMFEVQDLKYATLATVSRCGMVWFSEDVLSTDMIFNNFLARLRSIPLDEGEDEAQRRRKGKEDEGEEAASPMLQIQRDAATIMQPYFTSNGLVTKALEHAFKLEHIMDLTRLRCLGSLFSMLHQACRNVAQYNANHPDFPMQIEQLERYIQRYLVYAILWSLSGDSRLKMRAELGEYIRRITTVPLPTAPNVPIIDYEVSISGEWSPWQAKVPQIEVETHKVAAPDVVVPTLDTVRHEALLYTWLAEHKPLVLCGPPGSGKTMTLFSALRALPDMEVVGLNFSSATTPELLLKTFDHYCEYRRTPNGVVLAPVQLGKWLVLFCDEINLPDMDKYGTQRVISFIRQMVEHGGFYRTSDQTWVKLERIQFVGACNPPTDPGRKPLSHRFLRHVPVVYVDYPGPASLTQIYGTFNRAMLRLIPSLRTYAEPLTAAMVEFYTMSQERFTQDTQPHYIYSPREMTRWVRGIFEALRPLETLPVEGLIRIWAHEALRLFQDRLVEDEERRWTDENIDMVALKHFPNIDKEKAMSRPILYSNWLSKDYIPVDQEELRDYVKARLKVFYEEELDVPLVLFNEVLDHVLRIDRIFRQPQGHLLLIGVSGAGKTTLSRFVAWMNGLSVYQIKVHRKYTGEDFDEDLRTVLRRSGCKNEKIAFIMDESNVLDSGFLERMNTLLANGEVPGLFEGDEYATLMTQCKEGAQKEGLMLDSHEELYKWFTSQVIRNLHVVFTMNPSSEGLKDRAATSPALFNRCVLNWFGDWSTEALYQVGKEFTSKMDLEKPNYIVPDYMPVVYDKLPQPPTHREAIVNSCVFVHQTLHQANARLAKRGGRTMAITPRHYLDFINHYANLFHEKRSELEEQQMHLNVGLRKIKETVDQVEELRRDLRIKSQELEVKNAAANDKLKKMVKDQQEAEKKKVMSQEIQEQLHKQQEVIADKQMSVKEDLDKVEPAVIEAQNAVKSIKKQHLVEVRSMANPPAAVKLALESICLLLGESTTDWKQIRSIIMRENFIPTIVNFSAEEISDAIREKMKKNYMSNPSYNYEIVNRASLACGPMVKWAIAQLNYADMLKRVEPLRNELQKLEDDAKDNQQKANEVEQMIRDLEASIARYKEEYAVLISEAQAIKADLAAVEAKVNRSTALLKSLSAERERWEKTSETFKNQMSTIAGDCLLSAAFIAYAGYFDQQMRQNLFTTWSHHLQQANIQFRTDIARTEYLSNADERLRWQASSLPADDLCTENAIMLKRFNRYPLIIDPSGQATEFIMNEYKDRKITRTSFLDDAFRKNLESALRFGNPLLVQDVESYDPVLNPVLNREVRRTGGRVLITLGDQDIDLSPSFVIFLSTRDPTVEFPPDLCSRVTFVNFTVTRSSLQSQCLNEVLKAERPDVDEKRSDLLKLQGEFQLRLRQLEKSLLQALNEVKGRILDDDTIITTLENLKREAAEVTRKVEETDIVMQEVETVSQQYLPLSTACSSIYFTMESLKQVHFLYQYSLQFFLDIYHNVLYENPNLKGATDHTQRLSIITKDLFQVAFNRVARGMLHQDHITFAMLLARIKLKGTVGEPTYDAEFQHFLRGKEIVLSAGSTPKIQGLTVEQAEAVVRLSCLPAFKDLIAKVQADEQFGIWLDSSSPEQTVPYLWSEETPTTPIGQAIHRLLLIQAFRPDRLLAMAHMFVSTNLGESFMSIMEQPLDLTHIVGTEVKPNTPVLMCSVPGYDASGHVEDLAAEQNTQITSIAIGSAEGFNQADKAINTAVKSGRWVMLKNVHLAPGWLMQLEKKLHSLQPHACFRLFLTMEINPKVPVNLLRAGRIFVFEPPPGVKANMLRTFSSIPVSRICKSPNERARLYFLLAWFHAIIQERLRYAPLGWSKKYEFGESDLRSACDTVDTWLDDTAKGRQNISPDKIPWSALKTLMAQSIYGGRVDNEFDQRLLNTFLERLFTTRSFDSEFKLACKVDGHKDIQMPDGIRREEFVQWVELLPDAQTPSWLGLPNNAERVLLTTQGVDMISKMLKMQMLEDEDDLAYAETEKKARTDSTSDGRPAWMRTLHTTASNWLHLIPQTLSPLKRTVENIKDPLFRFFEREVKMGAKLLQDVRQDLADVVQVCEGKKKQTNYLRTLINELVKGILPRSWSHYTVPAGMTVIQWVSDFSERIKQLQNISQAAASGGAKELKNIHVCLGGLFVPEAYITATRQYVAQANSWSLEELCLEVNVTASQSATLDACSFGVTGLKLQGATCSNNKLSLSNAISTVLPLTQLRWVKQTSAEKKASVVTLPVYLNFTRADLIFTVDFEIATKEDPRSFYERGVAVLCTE
# No constants are given. Whether binding was seen depends on the method and setting. In cells and extracts the contact can be indirect. Some binding calls cover weakened binding; strength is not graded here. For some assays here: Sequences can lack the tags named with a protein.
# Experiments:
# [1] = biological target: T1, GFP-MAP2C, wild type (pAcGFP-His-MAP2C), expressed in HEK293 cells (human) (UniProt P11137); assay: co-IP
# T1 sequence: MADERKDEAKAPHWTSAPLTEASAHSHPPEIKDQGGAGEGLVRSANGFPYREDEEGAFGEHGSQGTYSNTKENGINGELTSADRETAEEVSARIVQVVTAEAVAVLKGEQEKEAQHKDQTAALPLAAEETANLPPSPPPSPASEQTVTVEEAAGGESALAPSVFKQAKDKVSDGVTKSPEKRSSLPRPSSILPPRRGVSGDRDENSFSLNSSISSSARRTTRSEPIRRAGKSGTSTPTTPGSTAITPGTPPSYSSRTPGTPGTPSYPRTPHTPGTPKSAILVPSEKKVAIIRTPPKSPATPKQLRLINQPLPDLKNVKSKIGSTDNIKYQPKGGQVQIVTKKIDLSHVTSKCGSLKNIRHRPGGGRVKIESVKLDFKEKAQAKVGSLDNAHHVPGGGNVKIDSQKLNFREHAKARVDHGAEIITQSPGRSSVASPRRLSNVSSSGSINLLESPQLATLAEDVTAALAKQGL
# [2] = biological target: MAP2, endogenous, long isoforms (mouse brain) (mouse (endogenous in mouse brain)) (UniProt P20357); assay: co-IP
Substance,binding [1],binding [2]
DHC1 (cytoplasmic Dynein heavy chain) expressed from plasmid in HEK293 cells (from UniProt Q14204 1-4646),binds,–
"cytoplasmic Dynein heavy chain (DHC1), endogenous (mouse brain) (from UniProt Q9JHU4 1-4644)",–,binds
